# PMC3930611
# Sequences of proteins named here, by UniProt entry; tags and fusion partners are left off.
# UniProt P49792: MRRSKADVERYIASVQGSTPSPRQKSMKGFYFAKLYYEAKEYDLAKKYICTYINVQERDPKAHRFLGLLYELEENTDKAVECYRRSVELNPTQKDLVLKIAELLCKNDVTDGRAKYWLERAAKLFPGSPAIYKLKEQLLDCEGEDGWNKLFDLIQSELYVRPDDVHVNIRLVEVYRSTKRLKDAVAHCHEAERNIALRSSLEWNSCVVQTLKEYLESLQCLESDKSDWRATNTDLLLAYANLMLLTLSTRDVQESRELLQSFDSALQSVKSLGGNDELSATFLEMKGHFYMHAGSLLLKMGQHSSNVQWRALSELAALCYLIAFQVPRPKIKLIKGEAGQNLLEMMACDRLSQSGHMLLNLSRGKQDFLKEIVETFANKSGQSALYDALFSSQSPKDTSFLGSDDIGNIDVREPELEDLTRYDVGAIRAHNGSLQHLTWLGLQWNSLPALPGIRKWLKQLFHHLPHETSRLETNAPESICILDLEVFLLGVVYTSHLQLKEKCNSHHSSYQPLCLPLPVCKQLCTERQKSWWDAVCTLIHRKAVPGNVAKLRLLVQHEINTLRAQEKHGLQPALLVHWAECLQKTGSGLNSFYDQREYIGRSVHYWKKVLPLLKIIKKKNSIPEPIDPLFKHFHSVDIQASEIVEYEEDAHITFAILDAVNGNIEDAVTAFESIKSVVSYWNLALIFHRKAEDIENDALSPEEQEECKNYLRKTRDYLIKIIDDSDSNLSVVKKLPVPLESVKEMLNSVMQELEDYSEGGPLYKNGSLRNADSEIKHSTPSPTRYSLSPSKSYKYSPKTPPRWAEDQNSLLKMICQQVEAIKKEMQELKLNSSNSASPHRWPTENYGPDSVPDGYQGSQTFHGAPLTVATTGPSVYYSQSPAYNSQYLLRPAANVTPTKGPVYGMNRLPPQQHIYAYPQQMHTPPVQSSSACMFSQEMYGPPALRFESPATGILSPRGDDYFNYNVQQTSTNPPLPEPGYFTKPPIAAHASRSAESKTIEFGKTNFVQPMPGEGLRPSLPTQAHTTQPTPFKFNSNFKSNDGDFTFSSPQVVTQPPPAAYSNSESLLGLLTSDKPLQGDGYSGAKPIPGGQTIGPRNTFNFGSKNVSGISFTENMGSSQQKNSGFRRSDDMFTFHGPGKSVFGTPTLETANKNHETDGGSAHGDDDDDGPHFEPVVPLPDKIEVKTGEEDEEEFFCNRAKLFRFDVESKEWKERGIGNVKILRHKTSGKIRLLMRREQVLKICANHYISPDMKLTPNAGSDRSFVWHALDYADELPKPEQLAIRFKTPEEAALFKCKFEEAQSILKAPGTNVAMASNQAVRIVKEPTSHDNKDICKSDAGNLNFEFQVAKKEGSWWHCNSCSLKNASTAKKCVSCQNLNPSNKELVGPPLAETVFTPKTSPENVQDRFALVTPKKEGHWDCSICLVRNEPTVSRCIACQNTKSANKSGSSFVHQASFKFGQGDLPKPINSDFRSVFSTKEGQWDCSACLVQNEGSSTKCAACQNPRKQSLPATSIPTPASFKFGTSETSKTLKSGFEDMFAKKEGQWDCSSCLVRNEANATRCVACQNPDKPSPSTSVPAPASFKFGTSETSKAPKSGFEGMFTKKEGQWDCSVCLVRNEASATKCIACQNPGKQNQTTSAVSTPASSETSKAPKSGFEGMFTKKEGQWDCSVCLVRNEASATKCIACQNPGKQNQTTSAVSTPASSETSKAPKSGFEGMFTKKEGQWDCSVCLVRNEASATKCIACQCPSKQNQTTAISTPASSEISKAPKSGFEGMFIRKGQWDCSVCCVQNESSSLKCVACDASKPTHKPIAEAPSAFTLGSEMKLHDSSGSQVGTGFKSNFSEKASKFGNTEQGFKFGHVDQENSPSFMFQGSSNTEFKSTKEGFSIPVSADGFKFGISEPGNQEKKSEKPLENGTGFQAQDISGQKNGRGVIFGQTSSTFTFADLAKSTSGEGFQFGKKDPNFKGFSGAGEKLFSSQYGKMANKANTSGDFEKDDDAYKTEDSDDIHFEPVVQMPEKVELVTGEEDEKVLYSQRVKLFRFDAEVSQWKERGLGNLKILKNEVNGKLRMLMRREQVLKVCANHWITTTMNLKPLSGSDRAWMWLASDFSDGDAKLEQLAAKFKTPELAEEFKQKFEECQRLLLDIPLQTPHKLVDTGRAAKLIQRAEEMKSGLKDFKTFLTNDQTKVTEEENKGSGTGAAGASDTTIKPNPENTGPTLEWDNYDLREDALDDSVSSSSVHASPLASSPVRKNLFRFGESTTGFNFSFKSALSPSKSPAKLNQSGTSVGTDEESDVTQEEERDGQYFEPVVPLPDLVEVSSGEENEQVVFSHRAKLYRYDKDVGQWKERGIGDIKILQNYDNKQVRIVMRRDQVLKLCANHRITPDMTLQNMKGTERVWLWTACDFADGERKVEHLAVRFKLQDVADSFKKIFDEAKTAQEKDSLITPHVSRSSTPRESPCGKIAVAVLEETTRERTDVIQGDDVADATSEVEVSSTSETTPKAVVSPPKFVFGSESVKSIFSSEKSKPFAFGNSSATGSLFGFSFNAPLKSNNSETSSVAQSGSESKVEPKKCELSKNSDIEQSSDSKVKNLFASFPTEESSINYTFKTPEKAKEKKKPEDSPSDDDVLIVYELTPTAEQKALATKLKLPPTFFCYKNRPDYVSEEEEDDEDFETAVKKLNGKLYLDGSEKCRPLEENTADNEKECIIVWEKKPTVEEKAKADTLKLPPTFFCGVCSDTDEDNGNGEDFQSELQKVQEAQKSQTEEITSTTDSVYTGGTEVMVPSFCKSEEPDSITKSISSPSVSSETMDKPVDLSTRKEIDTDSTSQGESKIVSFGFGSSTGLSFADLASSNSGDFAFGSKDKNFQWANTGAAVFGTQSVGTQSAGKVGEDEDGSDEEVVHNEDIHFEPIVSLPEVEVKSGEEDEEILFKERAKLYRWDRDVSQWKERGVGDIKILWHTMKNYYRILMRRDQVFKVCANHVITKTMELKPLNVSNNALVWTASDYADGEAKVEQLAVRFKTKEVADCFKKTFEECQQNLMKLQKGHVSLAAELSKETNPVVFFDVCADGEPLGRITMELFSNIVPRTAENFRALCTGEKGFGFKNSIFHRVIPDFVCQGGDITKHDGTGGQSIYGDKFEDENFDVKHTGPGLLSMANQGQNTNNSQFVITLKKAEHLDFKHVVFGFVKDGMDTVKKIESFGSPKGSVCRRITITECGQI
# Results are given in words; binding and its absence hold for the method and conditions named. Binding seen in cells or lysates may run through a third protein. Some binding calls cover weakened binding; strength is not graded here.
# Target: Nup358 (endogenous, immunoprecipitated with an antibody against Nup358) (human (endogenous in HeLa)) (UniProt P49792)
# Experiment: co-IP; immunoprecipitation with an antibody against Nup358; tested for importin β and importin 7; data not shown
substance,measurement,value
"importin β (endogenous, HeLa) (from UniProt Q14974-1 1-876)",binding,binds
